The values below come from publication PMC8593015 (Scientific Reports, 2021).

“And” between values parts separate entries of the source, which are not always exact repeats. Identical values can stand only once. Some results are limits rather than exact numbers.

This assay concerns the target T1, M. tb EgtD (Mycobacterium tuberculosis, UniProt P9WN47).
T1 construct: thioredoxin (N, cleaved yes); polyhistidine (N, cleaved yes); made in house; host or cells: E. coli (T7 cells), pET32-derived vector
T1 sequence (P9WN47 1-321): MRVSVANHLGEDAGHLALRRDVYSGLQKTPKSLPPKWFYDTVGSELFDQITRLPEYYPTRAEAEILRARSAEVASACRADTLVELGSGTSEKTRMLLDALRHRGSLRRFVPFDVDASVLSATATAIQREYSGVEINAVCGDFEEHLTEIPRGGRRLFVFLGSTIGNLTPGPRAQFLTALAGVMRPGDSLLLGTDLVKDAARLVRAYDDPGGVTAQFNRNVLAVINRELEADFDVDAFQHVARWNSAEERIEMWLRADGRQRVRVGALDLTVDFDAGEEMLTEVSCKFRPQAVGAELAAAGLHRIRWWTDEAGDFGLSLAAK
Kind of assay: biochemical.

As to `Cc1ccc(NC(=O)c2ccc(CN3CCN(C)CC3)cc2)cc1Nc1nccc(-c2cccnc2)n1` [Imatinib], the EC50 (commonly the concentration giving half of the maximal effect) was < 20 µM and 8.8 µM.
